From the supplement of paper PMC4604168 (melanoma cell lines) come the findings set out here.

The structures appear in SMILES notation. The list shows a part of the results. Single values are uncertain, as repeats are few or missing.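 Imaging used 1,536-well plates; nuclei positive for cleaved PARP by antibody were divided by total DNA-stained nuclei to yield the apoptosis fraction. Doses for screening kept most cells viable, and cell lines differ markedly in resting and induced cleaved-PARP levels.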

Among the test systems are WM115; WM1716; WM1745; WM3526; WM3619; WM451Lu.
Holding throughout (assay): cleaved PARP positive nuclei fraction relative to DMSO control; melanoma cells; higher = more apoptosis
Common to all, as to settings: library dose: low library concentration; 72 h

For `CC1(C)CCC(c2ccc(Cl)cc2)=C(CN2CCN(c3ccc(C(=O)NS(=O)(=O)c4ccc(N[C@H](CCN5CCOCC5)CSc5ccccc5)c(S(=O)(=O)C(F)(F)F)c4)cc3)CC2)C1` + CC(=O)O[C@@]12CO[C@@H]1C[C@H](O)[C@@]1(C)C(=O)[C@H](O)C3=C(C)[C@@H](OC(=O)[C@H](O)[C@@H](NC(=O)OC(C)(C)C)c4ccccc4)C[C@@](O)([C@@H](OC(=O)c4ccccc4)[C@H]21)C3(C)C [Docetaxel] (first compound 0.4 µM, partner dose 0.0001 µM), the “cleaved PARP positive nuclei fraction” value was 1270% in the test on WM115; 395% with WM1716; 1120% with WM1745; 1210% in the test on WM3526; 263% with WM3619; 453% in the test on WM451Lu.
Consider `COc1ccc(C2=N[C@@H](c3ccc(Cl)cc3)[C@@H](c3ccc(Cl)cc3)N2C(=O)N2CCNC(=O)C2)c(OC(C)C)c1` [Nutlin-3] + Cc1cc([N+](=O)[O-])ccc1NS(=O)(=O)c1cc(Cl)ccc1Cl [FH535] (first compound 0.1 µM, partner dose 1 µM), for which the “cleaved PARP positive nuclei fraction” value worked out at 240% with WM115; 156% in the test on WM1716; 92.8% in the test on WM1745; 68.3% in the test with WM3526; 88.3% in the test with WM3619; 69.7% in the test on WM451Lu.
Take `C[C@]1(O)C[C@@H](c2nc(-c3ccc4ccc(-c5ccccc5)nc4c3)c3c(N)nccn32)C1` + O=C(O)c1ccc(-c2c[nH]c3ncc(-c4ccccc4)cc23)cc1C1CCCC1 [GSK650394] (first compound 0.4 µM, partner dose 0.16 µM): the “cleaved PARP positive nuclei fraction” value in the test on WM115 stood at 94.3%; in the test on WM1716, 93.8%; in the test with WM1745 it was 99.5%; in the test with WM3526 it was 65.9%; in the test on WM3619, 83.7%; with WM451Lu it was 79.1%.
In the case of `CC1(C)CCC(c2ccc(Cl)cc2)=C(CN2CCN(c3ccc(C(=O)NS(=O)(=O)c4ccc(N[C@H](CCN5CCOCC5)CSc5ccccc5)c(S(=O)(=O)C(F)(F)F)c4)cc3)CC2)C1` + C[C@@H](Oc1cc(-c2cnn(C3CCNCC3)c2)cnc1N)c1c(Cl)ccc(F)c1Cl [Crizotinib] (first compound 0.4 µM, partner dose 0.2 µM), the “cleaved PARP positive nuclei fraction” value with WM115 is 493%; with WM1716 it was 37.9%; in the test on WM1745, 996%; in the test on WM3526 it was 52.4%; in the test with WM3619, 86.4%; with WM451Lu, 97.6%.
For the compound `CC1(C)CCC(c2ccc(Cl)cc2)=C(CN2CCN(c3ccc(C(=O)NS(=O)(=O)c4ccc(N[C@H](CCN5CCOCC5)CSc5ccccc5)c(S(=O)(=O)C(F)(F)F)c4)cc3)CC2)C1` + Cn1cnc2c(F)c(Nc3ccc(Br)cc3Cl)c(C(=O)NOCCO)cc21 [selumetinib] (first compound 0.4 µM, partner dose 0.015 µM), the “cleaved PARP positive nuclei fraction” value in the test with WM115 was found to be 799%; with WM1716, 110%; in the test with WM1745, 643%; with WM3526 it was 50.2%; in the test with WM3619 it was 117%; in the test with WM451Lu, 63.2%.
With `COc1ccc(C2=N[C@@H](c3ccc(Cl)cc3)[C@@H](c3ccc(Cl)cc3)N2C(=O)N2CCNC(=O)C2)c(OC(C)C)c1` [Nutlin-3] + C#Cc1cccc(Nc2ncnc3cc(OCCOC)c(OCCOC)cc23)c1 [erlotinib] (first compound 0.1 µM, partner dose 0.8 µM), the “cleaved PARP positive nuclei fraction” value in the test with WM115 worked out at 24.3%; in the test with WM1716, 69.2%; in the test on WM1745, 119%; in the test on WM3526 it was 37.9%; in the test with WM3619, 98.5%; in the test on WM451Lu, 77.4%.
